From article PMC7249644
These are yes or no findings as the source states them, for the method shown. Binding seen in cells or lysates may run through a third protein. Tags and fused reporters may be left off the sequences shown.

Molecular target: T1, OsSHMT fused with a YFP fragment for BiFC (rice (Oryza sativa subsp. indica, Dular)) (UniProt Q10D68)
T1 sequence: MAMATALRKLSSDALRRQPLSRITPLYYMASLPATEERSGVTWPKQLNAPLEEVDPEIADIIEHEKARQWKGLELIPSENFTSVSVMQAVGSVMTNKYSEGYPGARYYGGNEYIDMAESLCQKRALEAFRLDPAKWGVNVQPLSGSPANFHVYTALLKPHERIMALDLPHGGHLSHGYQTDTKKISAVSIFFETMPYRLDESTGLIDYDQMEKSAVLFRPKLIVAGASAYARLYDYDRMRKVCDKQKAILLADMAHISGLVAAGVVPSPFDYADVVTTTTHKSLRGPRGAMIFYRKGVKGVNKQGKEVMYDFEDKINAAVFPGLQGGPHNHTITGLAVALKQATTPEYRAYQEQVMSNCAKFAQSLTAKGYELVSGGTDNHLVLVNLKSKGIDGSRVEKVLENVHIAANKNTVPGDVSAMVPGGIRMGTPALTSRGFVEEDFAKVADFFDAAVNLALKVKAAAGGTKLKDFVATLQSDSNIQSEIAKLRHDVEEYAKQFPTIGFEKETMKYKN
Assay: split reporter; BiFC: YFPn and YFPc fusions co-expressed by transient transformation in leaves of Nicotiana benthamiana; YFP fluorescence by laser confocal microscopy, 488-nm excitation

B1: OsNIP2;1 (Lsi1-encoded nodulin 26-like intrinsic protein) fused with the N-terminal domain of YFP (protein, UniProt Q6Z2T3 1-298)
chain: MASNNSRTNSRANYSNEIHDLSTVQNGTMPTMYYGEKAIADFFPPHLLKKVVSEVVATFLLVFMTCGAAGISGSDLSRISQLGQSIAGGLIVTVMIYAVGHISGAHMNPAVTLAFAVFRHFPWIQVPFYWAAQFTGAICASFVLKAVIHPVDVIGTTTPVGPHWHSLVVEVIVTFNMMFVTLAVATDTRAVGELAGLAVGSAVCITSIFAGAISGGSMNPARTLGPALASNKFDGLWIYFLGPVMGTLSGAWTYTFIRFEDTPKEGSSQKLSSFKLRRLRSQQSIAADDVDEMENIQV
  binding: no binding
